The test system of the test is PC-3-KQ cells. As to the kind of experiment: 3D spheroid invasion assay and screening of FDA-approved drugs. The format is cell-based, human. The note with it: secondary screening of 87 hit compounds (Table S1), compared to vehicle control. The protocol:
The invasion assay was performed as previously described. […] The plates were then centrifuged at 320 g for 4 min to cluster cells in the bottom of wells and incubated for 3 days. On the fourth day, 40 μL medium was removed from each well, 40 μL of the matrigel-medium mixture was added to each well, and cells were cultured for another 3 days. […] At the end of the incubation, images were taken using a phase contrast microscope (Eclipse Ti2, Nikon, Tokyo, Japan) with 10× object lenses, and the total area of cells and the core sphere area of cells (Fig. 1a) were measured using the Image J software. The invading area was calculated using the following formula: invasion area = total area of cells – core sphere area.
For drug screening, drugs were added to the matrigel-medium mixture when replacing the culture medium on day 4. For the initial round of screening, a final concentration of 10 μM was used for all drugs. Multiple drug concentrations were used for the second round of screening, including 0, 0.001, 0.01, 0.1, 1, and 10 μM. Duplicate wells were repeated for each concentration.

SMILES strings stand for the structures.

On to `COc1cc(OC)cc(N(CCNC(C)C)c2ccc3ncc(-c4cnn(C)c4)nc3c2)c1` [Erdafitinib], for which the activity at 1 µM (Homo sapiens, 72 h, 1 μM, read-out: Invasion rates (%) of each drug’s multiple concentrations) was found to be 80.6%. For the same compound, the activity at 10 µM (Homo sapiens, 72 h, 10 μM, read-out: Invasion rates (%) of each drug’s multiple concentrations) stood at 50.3%.

Take `CN1CCC[C@@H]1CCO[C@](C)(c1ccccc1)c1ccc(Cl)cc1.O=C(O)/C=C/C(=O)O` [Clemastine (fumarate)]: the “Invasion rates (%) of each drug’s multiple concentrations (μM)” value is, setting by setting: (0.01 μM (first column so headed)) 99.30%; (0.01 μM (second column so headed)) 99.73%; (0.1 μM) 98.29%; (1 μM) 97.09%; (10 μM) 41.07%.

(Values after paper PMC9945734 (BMC Medicine, 2023).)
